Results: the supplement of paper PMC10849652
The list shows a part of the results.

By UniProt entry, the sequences of proteins in these tests, tags left out. Where a name states a change or a piece, a line headed by the entry shows the natural chain unless it says otherwise.
UniProt Q9Y3B8: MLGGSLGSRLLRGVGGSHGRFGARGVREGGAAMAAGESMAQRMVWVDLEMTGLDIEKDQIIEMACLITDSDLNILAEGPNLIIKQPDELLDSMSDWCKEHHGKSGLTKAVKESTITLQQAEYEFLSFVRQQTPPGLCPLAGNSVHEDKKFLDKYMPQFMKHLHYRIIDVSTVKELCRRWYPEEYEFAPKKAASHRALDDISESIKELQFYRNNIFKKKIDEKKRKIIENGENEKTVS
UniProt Q9NW13: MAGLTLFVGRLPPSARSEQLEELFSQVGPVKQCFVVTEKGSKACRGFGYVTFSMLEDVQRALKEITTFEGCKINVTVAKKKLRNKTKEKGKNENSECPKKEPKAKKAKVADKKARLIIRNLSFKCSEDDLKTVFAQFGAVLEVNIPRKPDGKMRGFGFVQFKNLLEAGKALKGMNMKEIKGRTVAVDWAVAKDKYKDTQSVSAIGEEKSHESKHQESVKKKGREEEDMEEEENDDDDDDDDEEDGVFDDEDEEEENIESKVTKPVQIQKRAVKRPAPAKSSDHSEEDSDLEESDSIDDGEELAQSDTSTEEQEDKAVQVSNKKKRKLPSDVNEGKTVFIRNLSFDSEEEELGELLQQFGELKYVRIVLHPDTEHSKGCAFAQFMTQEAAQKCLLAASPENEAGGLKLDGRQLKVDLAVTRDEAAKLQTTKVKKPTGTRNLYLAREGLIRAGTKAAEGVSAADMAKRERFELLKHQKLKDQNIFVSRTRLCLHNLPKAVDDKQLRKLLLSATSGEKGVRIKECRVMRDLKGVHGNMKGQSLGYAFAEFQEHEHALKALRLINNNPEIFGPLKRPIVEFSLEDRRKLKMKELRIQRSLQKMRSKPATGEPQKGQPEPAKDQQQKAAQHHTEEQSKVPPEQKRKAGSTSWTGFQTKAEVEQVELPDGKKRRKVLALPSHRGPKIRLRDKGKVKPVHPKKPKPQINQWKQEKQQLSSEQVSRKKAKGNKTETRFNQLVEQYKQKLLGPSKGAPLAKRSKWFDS
UniProt Q96PK6: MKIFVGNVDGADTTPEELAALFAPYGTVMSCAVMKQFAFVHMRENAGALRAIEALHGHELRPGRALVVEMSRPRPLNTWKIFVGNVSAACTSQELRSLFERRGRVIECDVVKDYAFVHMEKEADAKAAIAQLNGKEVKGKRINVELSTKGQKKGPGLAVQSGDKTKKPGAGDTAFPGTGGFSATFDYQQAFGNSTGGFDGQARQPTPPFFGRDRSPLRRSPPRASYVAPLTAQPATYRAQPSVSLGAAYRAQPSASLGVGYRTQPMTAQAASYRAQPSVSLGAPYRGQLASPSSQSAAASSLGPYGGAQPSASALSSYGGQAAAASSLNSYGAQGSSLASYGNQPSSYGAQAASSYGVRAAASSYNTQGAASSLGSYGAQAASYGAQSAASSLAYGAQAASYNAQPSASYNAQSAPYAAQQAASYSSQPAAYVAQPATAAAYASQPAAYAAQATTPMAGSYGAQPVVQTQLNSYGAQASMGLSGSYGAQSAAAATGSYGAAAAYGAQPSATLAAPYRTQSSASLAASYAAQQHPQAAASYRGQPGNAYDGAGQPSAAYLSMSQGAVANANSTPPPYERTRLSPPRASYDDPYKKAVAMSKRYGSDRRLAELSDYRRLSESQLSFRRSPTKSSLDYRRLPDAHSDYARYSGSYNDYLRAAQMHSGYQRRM
UniProt Q9BTD8: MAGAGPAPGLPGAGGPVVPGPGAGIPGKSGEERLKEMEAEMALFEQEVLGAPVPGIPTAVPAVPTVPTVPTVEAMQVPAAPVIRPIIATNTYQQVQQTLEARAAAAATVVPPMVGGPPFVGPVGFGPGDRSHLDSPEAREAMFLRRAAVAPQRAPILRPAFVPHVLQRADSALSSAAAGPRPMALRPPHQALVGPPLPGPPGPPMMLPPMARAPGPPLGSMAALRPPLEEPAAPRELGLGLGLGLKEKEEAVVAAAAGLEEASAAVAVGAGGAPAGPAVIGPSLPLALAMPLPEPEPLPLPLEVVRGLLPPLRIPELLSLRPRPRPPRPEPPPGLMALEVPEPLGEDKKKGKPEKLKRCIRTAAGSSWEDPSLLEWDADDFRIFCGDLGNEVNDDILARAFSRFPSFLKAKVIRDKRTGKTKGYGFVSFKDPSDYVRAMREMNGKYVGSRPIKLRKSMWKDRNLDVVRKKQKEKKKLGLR
UniProt Q9Y4C8: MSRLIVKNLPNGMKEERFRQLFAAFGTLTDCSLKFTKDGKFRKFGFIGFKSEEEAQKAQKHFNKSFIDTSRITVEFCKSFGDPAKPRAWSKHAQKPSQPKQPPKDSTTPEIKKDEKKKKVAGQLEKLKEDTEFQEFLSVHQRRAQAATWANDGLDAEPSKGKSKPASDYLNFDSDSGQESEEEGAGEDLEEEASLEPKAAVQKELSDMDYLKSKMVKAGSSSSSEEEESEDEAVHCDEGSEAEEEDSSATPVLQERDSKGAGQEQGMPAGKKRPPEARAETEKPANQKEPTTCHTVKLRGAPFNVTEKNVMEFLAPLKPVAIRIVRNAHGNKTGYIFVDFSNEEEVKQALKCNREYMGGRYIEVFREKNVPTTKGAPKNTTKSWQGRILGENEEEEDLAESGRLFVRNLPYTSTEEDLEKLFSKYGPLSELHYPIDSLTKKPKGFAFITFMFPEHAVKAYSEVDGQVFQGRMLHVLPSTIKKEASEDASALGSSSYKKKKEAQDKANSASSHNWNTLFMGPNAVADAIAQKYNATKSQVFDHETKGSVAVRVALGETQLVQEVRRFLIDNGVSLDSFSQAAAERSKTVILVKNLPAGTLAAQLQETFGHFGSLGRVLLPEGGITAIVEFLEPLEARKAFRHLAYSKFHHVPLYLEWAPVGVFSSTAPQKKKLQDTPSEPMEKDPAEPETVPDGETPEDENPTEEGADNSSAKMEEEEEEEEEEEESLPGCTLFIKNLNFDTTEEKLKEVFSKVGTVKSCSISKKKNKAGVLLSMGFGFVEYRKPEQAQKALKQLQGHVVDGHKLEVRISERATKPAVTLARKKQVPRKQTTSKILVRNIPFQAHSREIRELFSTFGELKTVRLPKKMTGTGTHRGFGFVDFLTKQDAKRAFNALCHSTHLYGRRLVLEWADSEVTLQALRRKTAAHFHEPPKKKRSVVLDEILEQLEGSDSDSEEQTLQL
UniProt Q96D71: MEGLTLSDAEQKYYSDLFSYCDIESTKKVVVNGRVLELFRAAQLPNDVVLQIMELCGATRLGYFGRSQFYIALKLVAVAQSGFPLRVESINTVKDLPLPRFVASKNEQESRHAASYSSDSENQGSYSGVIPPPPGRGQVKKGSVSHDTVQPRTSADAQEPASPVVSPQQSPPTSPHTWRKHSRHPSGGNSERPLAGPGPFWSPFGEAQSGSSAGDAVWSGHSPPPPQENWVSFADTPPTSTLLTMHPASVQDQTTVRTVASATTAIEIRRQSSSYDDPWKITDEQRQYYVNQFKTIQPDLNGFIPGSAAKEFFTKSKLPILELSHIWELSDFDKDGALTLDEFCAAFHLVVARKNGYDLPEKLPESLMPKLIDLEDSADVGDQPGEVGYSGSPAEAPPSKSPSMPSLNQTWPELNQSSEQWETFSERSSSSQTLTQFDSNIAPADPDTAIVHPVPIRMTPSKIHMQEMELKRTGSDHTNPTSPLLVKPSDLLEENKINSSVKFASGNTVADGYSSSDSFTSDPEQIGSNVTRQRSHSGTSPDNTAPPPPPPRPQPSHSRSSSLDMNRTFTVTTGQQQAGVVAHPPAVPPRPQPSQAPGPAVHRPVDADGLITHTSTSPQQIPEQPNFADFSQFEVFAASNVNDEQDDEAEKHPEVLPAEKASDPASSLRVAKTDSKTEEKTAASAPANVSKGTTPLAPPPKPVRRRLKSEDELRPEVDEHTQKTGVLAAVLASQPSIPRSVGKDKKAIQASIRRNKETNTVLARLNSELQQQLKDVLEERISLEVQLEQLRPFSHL
UniProt Q8TAC1: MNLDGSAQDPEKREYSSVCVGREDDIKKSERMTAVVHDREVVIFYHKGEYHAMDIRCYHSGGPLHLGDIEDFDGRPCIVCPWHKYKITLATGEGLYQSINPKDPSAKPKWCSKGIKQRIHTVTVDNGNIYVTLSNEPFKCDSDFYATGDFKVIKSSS
UniProt Q15291, whole entry, looked up: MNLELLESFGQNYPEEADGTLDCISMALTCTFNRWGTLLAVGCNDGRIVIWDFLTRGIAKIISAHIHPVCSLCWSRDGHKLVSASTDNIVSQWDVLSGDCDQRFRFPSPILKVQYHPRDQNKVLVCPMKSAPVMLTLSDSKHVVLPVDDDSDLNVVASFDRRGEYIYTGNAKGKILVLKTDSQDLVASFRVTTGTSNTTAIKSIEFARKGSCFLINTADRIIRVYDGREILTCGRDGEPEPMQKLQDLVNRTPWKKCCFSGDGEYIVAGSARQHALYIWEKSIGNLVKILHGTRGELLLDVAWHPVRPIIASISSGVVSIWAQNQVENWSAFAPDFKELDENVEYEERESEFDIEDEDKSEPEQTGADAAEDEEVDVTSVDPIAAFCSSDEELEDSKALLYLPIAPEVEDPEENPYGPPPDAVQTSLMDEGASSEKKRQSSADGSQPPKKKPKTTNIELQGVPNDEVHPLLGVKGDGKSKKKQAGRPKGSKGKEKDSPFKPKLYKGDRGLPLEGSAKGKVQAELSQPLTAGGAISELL
UniProt P49795: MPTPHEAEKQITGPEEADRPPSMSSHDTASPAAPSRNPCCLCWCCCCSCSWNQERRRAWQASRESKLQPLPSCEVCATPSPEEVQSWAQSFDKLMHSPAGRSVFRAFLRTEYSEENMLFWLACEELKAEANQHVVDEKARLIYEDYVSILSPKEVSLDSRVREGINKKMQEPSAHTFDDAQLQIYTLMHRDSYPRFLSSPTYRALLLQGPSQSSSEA
UniProt O43566: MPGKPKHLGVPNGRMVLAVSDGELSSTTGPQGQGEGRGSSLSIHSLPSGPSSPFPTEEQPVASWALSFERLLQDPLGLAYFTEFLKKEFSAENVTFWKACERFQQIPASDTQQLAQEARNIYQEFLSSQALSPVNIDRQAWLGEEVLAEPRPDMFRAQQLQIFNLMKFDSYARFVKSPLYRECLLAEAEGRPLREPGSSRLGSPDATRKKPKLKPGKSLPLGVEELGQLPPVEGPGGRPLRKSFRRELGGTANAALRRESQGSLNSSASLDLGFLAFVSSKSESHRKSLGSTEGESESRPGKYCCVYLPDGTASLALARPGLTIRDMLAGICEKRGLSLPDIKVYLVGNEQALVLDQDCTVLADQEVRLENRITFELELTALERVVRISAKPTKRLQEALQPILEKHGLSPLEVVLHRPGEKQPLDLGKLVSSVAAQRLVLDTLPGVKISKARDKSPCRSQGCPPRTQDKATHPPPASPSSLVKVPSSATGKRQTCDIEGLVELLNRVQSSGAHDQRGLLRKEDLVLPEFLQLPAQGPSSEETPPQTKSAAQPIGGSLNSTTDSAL

Tests used:
Assay in all cases: log2 fold change, soluble protein after heating vs DMSO (PISA); higher = thermal stabilisation; K562 lysate, 10 uM; active = over 0.2 and 3.5 SD of the protein, either way, in both replicates (recomputed)
nilotinib = compound: Cc1cn(-c2cc(NC(=O)c3ccc(C)c(Nc4nccc(-c5cccnc5)n4)c3)cc(C(F)(F)F)c2)cn1 [nilotinib]
How it was run: (§1)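 Quantification was by TMTpro 16plex LC-MS/MS with equalised channel sums, applied to the supernatant after 21,000xg for 90 min. Samples were crude K562 extract at 1 mg/mL protein in PBS pH 7.4 with 1 mM MgCl2, treated with 10 μM compound for 30 min, heated for 3 min across 48°C-58°C, pooled and brought to 0.5% NP-40 at 4°C. Values are log-two fold changes in thermal stability relative to solvent controls, from duplicates.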

[1] = compound: Cc1nc(Nc2n[nH]c3c2CN(C(=O)N[C@H](CN(C)C)c2ccccc2)C3(C)C)c2sccc2n1
How it was run: as §1

dasatinib = compound: Cc1nc(Nc2ncc(C(=O)Nc3c(C)cccc3Cl)s2)cc(N2CCN(CCO)CC2)n1 [dasatinib]
How it was run: as §1

[2] = compound: Cc1ncc(-c2ccnc(Nc3ccc(S(C)(=O)=O)cc3)n2)n1C(C)C
How it was run: as §1

[3] = compound: Cn1cc(-c2ccc3c(c2)CCN3C(=O)Cc2cccc(C(F)(F)F)c2)c2c(N)ncnc21
How it was run: as §1

quisinostat = compound: Cn1cc(CNCC2CCN(c3ncc(C(=O)NO)cn3)CC2)c2ccccc21 [quisinostat]
How it was run: as §1

tipifarnib = compound: Cn1cncc1[C@@](N)(c1ccc(Cl)cc1)c1ccc2c(c1)c(-c1cccc(Cl)c1)cc(=O)n2C [tipifarnib]
How it was run: as §1

[4] = compound: NC(=O)Nc1cc(-c2cccc(F)c2)sc1C(=O)N[C@H]1CCCNC1
How it was run: as §1

[5] = compound: NC(=O)c1cnc(N[C@@H]2CCCC[C@@H]2N)nc1Nc1cccc(-n2nccn2)c1
How it was run: as §1

[6] = compound: NC1(c2ccc(-c3nc4ccn5c(=O)[nH]nc5c4cc3-c3ccccc3)cc2)CCC1
How it was run: as §1

[7] = compound: NCC(=O)Nc1ccc(-n2nc(C(F)(F)F)cc2-c2ccc3c(ccc4ccccc43)c2)cc1
How it was run: as §1

vorinostat = compound: O=C(CCCCCCC(=O)Nc1ccccc1)NO [vorinostat]
How it was run: as §1

silmitasertib = compound: O=C(O)c1ccc2c(c1)nc(Nc1cccc(Cl)c1)c1ccncc12 [silmitasertib]
How it was run: as §1

[8] = compound: O=C1NC(=O)C(c2cnc3ccccn23)=C1c1cn2c3c(cc(F)cc13)CN(C(=O)N1CCCCC1)CC2
How it was run: as §1

entospletinib = compound: c1cn2cc(-c3ccc4cn[nH]c4c3)nc(Nc3ccc(N4CCOCC4)cc3)c2n1 [entospletinib]
How it was run: as §1

Measured: log2 fold change

REXO2 (UniProt Q9Y3B8)
inactive: nilotinib 0.01 | [1] 0.005 | dasatinib -0.02 | [2] -0.002 | [3] -0.023 | quisinostat 0.001 | tipifarnib 0.067 | [4] 0.002 | [5] -0.001 | [6] 0.027 | [7] 0.014 | vorinostat 0.01 | silmitasertib -0.006 | [8] -0.011 | entospletinib 0.045

RBM28 (UniProt Q9NW13)
inactive: nilotinib -0.002 | [1] -0.022 | dasatinib -0.019 | [2] -0.014 | [3] 0.015 | quisinostat -0.018 | tipifarnib 0.006 | [4] 0.024 | [5] 0.006 | [6] -0.045 | [7] 0.042 | vorinostat 0.019 | silmitasertib 0.089 | [8] 0.013 | entospletinib 0.024

RBM14 (UniProt Q96PK6)
inactive: nilotinib -0.013 | [1] 0.019 | dasatinib -0.001 | [2] -0.003 | [3] 0.058 | quisinostat 0.03 | tipifarnib -0.012 | [4] -0.035 | [5] -0.016 | [6] 0.038 | [7] -0.037 | vorinostat -0.019 | silmitasertib 0.033 | [8] -0.047 | entospletinib -0.081

RBM42 (UniProt Q9BTD8)
inactive: nilotinib 0.102 | [1] -0.039 | dasatinib -0.021 | [2] 0.009 | [3] -0.039 | quisinostat -0.033 | tipifarnib 0.073 | [4] -0.022 | [5] -0.049 | [6] 0.004 | [7] 0.19 | vorinostat -0.04 | silmitasertib -0.031 | [8] 0.018 | entospletinib -0.058

RBM19 (UniProt Q9Y4C8)
inactive: nilotinib -0.018 | [1] -0.067 | dasatinib 0.082 | [2] -0.016 | [3] -0.079 | quisinostat 0.14 | tipifarnib 0.009 | [4] -0.153 | [5] -0.019 | [6] -0.033 | [7] -0.02 | vorinostat 0.116 | silmitasertib 0.014 | [8] 0.083 | entospletinib -0.023

REPS1 (UniProt Q96D71)
inactive: nilotinib 0.006 | [1] -0.013 | dasatinib 0.012 | [2] 0.002 | [3] 0.012 | quisinostat -0.065 | tipifarnib -0.025 | [4] 0.011 | [5] 0.034 | [6] -0.005 | [7] -0.017 | vorinostat 0.02 | silmitasertib -0.014 | [8] 0.001 | entospletinib -0.027

RFESD isoform 2 (UniProt Q8TAC1)
inactive: nilotinib 0.015 | [1] -0.001 | dasatinib -0.019 | [2] 0.035 | [3] 0.031 | quisinostat 0.024 | tipifarnib -0.016 | [4] 0.003 | [5] -0.004 | [6] 0 | [7] 0.029 | vorinostat 0.091 | silmitasertib -0.031 | [8] -0.018 | entospletinib 0.044

RBBP5 isoform 2 (UniProt Q15291)
inactive: nilotinib -0.156 | [1] 0.19 | dasatinib -0.04 | [2] -0.28 | [3] 0.018 | quisinostat -0.071 | tipifarnib -0.048 | [4] 0.043 | [5] 0.129 | [7] 0.22 | [8] 0.322 | entospletinib -0.191

RGS19 (UniProt P49795)
inactive: nilotinib -0.181 | [1] 0.049 | [2] 0.159 | quisinostat -0.091 | tipifarnib 0.044 | [4] -0.048 | [8] 0.112

Looked up one by one from the entries so far, 2 records:
RBM19 (UniProt Q9Y4C8)
inactive: nilotinib -0.018 | [1] -0.067 | dasatinib 0.082 | [2] -0.016 | [3] -0.079 | quisinostat 0.14 | tipifarnib 0.009 | [4] -0.153 | [5] -0.019 | [6] -0.033 | [7] -0.02 | vorinostat 0.116 | silmitasertib 0.014 | [8] 0.083 | entospletinib -0.023

REPS1 (UniProt Q96D71)
inactive: nilotinib 0.006 | [1] -0.013 | dasatinib 0.012 | [2] 0.002 | [3] 0.012 | quisinostat -0.065 | tipifarnib -0.025 | [4] 0.011 | [5] 0.034 | [6] -0.005 | [7] -0.017 | vorinostat 0.02 | silmitasertib -0.014 | [8] 0.001 | entospletinib -0.027

Later entries

RGS14 (UniProt O43566)
inactive: nilotinib -0.184 | [1] 0.036 | dasatinib 0.029 | [2] 0.144 | [3] 0.126 | quisinostat -0.054 | tipifarnib -0.089 | [4] 0.071 | [5] 0.02 | [6] -0.087 | vorinostat -0.095 | silmitasertib -0.124 | [8] -0.036 | entospletinib 0

RBBP7 (UniProt C9J7L0)
inactive: nilotinib -0.133 | [1] 0.046 | [2] 0.222 | tipifarnib 0.039
